Article PMC6430810 (2019)
These are yes or no findings as the source states them, for the method shown. For part of these data: A result given as binding can be weak or reduced; the word gives no strength. For part of these data: Tags and fused reporters may be left off the sequences shown. For part of these data: Binding seen in cells or lysates may run through a third protein. Each block holds one molecule with its values, some of them ahead of it.

By UniProt entry, the sequences of proteins in these tests, tags left out. Where a name states a change or a piece, a line headed by the entry shows the natural chain unless it says otherwise.
UniProt A1L200: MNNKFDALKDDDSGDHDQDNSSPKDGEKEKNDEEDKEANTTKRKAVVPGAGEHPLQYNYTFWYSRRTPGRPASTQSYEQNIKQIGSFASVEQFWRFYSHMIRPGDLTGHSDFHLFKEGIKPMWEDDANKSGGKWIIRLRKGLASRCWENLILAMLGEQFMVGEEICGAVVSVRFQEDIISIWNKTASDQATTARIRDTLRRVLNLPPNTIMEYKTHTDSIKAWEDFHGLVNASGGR
UniProt A0A8M1NGD6: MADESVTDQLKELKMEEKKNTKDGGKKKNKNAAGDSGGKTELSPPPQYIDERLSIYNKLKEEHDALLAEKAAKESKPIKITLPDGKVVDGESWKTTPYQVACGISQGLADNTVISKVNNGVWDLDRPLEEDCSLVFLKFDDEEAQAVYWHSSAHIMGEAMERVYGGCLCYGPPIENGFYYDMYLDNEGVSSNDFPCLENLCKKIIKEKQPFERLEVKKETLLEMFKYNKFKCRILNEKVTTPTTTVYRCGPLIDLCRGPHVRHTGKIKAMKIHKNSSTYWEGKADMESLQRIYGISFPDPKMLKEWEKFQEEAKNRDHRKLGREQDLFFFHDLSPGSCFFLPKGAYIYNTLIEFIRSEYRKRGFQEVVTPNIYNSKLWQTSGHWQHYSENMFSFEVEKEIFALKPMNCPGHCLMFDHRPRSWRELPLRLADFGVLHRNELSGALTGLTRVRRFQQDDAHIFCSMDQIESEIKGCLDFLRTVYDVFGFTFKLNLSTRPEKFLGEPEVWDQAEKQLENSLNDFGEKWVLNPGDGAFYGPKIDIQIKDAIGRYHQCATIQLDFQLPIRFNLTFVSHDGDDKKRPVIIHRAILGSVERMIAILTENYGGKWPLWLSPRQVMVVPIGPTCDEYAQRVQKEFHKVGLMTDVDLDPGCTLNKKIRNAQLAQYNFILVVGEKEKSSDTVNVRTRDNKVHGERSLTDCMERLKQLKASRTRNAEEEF

Assays:
[1] = biological target: T1, human threonyl-tRNA synthetase, Strep-tagged (TRS-Strep) (human) (UniProt P26639); assay: pull-down; purified TRS-Strep mixed with 4EHP (45-245) at 1:3 or His-GST-PABP at 1:2, 8 h at 4 °C; Strep-Tactin resin; wash 50 mM Tris-HCl pH 7.5, 300 mM NaCl, 1 mM EDTA, 2% NP-40; eluted with desthiobiotin; both purified
T1 sequence: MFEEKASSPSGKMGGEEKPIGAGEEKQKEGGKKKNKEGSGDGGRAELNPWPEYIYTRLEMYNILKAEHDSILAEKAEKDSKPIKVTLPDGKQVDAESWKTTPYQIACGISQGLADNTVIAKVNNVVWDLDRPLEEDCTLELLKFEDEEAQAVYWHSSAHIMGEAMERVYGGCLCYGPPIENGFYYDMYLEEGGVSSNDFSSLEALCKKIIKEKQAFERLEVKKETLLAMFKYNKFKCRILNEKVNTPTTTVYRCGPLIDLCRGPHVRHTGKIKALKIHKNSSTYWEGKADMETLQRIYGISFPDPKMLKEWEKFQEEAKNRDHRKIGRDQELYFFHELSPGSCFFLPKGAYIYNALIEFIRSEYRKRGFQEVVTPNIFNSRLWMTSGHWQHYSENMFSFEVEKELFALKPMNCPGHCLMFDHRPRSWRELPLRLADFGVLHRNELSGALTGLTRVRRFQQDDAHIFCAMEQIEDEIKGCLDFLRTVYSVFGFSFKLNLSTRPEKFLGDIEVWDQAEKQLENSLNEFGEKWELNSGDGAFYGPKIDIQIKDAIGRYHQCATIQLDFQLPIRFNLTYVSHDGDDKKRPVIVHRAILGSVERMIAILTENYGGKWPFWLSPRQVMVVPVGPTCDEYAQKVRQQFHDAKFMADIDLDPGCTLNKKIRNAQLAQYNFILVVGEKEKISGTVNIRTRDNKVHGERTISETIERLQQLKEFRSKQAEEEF

[2] = biological target: T2, TRS-VN (human TRS fused to the Venus N-domain) (human) (UniProt P26639); assay: split reporter; BiFC with Venus; pBiFC-VN173-ARSs co-transfected with pBiFC-VC155-eIF4E isoforms in CHO cells; fluorescence and confocal microscopy
T2 sequence: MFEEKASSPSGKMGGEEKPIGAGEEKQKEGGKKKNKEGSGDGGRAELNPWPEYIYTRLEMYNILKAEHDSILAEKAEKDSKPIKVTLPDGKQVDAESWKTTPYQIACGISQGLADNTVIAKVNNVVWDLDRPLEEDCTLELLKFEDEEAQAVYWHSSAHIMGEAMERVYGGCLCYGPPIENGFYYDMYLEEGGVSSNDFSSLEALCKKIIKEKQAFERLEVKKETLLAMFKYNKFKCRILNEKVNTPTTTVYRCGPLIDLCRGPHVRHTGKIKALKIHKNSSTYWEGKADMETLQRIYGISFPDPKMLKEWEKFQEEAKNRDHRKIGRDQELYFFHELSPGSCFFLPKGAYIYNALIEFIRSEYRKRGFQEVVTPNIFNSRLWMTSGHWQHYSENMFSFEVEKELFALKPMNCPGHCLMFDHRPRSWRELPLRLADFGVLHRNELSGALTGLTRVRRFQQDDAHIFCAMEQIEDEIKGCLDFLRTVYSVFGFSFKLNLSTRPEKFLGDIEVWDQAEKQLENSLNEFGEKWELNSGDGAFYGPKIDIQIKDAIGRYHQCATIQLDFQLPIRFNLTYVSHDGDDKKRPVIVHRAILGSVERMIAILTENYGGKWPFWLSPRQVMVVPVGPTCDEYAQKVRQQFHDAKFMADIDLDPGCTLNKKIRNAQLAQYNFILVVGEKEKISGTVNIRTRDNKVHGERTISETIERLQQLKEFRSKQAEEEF

[3] = biological target: zebrafish HA-4EHP (HA-z4EHP) (zebrafish) (UniProt A1L200); assay: co-IP; Myc-TRS and HA-4EHP (or other tagged proteins) co-expressed in 293T; anti-Myc or anti-HA immunoprecipitation; tag-specific immunoblot
[4] = biological target: T3, GST-TRS (human, from E. coli) (human) (UniProt P26639); assay: pull-down; purified GST-TRS on glutathione-Sepharose incubated with 293T lysates holding FLAG-tagged proteins, 4 h at 4 °C; PBS with 0.2% NP-40, 5% glycerol, 1 mM EDTA, 1 mM DTT; anti-FLAG immunoblot; only the target purified
T3 sequence: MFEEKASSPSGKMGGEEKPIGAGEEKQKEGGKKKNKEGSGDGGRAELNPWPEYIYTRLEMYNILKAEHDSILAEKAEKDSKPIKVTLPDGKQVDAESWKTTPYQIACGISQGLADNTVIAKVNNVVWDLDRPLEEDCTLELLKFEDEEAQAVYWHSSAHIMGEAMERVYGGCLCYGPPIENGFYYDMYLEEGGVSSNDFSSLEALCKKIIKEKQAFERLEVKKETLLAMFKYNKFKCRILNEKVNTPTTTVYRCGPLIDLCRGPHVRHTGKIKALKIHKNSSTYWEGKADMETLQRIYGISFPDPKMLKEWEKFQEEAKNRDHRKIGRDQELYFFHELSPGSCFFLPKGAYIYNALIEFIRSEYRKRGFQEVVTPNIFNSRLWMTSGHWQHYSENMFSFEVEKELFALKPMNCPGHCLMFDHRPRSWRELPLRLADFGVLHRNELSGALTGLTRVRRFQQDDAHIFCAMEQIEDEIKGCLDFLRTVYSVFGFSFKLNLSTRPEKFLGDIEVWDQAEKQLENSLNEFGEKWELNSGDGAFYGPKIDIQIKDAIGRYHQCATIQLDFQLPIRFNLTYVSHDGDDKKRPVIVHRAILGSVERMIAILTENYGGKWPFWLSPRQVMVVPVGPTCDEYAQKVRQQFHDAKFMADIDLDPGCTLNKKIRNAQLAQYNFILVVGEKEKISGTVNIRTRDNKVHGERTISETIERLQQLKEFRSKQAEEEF

[5] = biological target: T4, endogenous human TRS (human (endogenous in WI-26 and 293T)) (UniProt P26639); assay: co-IP; endogenous proteins in WI-26 cell lysates; anti-TRS or anti-4EHP immunoprecipitation; rabbit or mouse IgG as negative control
T4 sequence: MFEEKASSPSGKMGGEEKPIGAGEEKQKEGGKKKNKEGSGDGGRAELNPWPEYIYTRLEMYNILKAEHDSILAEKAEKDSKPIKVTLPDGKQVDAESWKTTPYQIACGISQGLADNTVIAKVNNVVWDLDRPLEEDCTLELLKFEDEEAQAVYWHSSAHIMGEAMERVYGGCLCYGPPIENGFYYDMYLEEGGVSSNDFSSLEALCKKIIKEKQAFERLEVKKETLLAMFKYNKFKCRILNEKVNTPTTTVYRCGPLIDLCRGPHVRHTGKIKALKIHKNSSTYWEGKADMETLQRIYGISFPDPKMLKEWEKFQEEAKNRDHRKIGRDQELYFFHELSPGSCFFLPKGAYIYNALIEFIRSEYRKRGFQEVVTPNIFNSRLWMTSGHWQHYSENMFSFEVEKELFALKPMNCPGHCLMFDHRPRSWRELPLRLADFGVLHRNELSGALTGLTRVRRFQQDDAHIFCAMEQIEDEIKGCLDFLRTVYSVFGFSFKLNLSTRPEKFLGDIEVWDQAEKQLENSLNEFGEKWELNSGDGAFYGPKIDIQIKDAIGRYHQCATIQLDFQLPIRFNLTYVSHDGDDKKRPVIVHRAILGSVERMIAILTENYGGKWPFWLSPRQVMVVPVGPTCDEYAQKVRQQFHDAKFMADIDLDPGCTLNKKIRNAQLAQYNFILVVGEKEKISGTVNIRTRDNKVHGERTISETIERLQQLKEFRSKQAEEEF

[6] = biological target: 4EHP-VC (human 4EHP fused to the Venus C-domain) (human); assay: split reporter; BiFC with Venus; pBiFC-VN173-ARSs co-transfected with pBiFC-VC155-eIF4E isoforms in CHO cells; fluorescence and confocal microscopy
[7] = biological target: human 4EHP (residues 45-234) co-expressed with TRS (30-74) for crystallisation (human); assay: crystal structure; 4EHP (45-234)-TRS (30-74) complex; 20% PEG 8000, 0.1 M CHES pH 9.5, 21 °C; without m^7GTP; 1.9 Å; both purified
[8] = biological target: PABP-FLAG (human poly(A)-binding protein) (human); assay: co-IP; FLAG-tagged protein co-expressed with Strep- or GST-tagged proteins in 293T; anti-FLAG immunoprecipitation; anti-Strep or anti-GST immunoblot

- binding [1]: binds weakly
Molecule: human 4EHP (residues 45-245) (domain or fragment)

- binding [5]: binds
Molecule: endogenous human PABP

- binding [6]: no binding
B1: WRS-VN (tryptophanyl-tRNA synthetase fused to the Venus N-domain) (enzyme, UniProt P23381 1-471)
chain: MPNSEPASLLELFNSIATQGELVRSLKAGNASKDEIDSAVKMLVSLKMSYKAAAGEDYKADCPPGNPAPTSNHGPDATEAEEDFVDPWTVQTSSAKGIDYDKLIVRFGSSKIDKELINRIERATGQRPHHFLRRGIFFSHRDMNQVLDAYENKKPFYLYTGRGPSSEAMHVGHLIPFIFTKWLQDVFNVPLVIQMTDDEKYLWKDLTLDQAYSYAVENAKDIIACGFDINKTFIFSDLDYMGMSSGFYKNVVKIQKHVTFNQVKGIFGFTDSDCIGKISFPAIQAAPSFSNSFPQIFRDRTDIQCLIPCAIDQDPYFRMTRDVAPRIGYPKPALLHSTFFPALQGAQTKMSASDPNSSIFLTDTAKQIKTKVNKHAFSGGRDTIEEHRQFGGNCDVDVSFMYLTFFLEDDDKLEQIRKDYTSGAMLTGELKKALIEVLQPLIAEHQARRKEVTDEIVKEFMTPRKLSFDFQ

- binding [8]: binds
B3: TRS-Strep M60K mutant (enzyme, UniProt P26639 1-723)
chain: MFEEKASSPSGKMGGEEKPIGAGEEKQKEGGKKKNKEGSGDGGRAELNPWPEYIYTRLEKYNILKAEHDSILAEKAEKDSKPIKVTLPDGKQVDAESWKTTPYQIACGISQGLADNTVIAKVNNVVWDLDRPLEEDCTLELLKFEDEEAQAVYWHSSAHIMGEAMERVYGGCLCYGPPIENGFYYDMYLEEGGVSSNDFSSLEALCKKIIKEKQAFERLEVKKETLLAMFKYNKFKCRILNEKVNTPTTTVYRCGPLIDLCRGPHVRHTGKIKALKIHKNSSTYWEGKADMETLQRIYGISFPDPKMLKEWEKFQEEAKNRDHRKIGRDQELYFFHELSPGSCFFLPKGAYIYNALIEFIRSEYRKRGFQEVVTPNIFNSRLWMTSGHWQHYSENMFSFEVEKELFALKPMNCPGHCLMFDHRPRSWRELPLRLADFGVLHRNELSGALTGLTRVRRFQQDDAHIFCAMEQIEDEIKGCLDFLRTVYSVFGFSFKLNLSTRPEKFLGDIEVWDQAEKQLENSLNEFGEKWELNSGDGAFYGPKIDIQIKDAIGRYHQCATIQLDFQLPIRFNLTYVSHDGDDKKRPVIVHRAILGSVERMIAILTENYGGKWPFWLSPRQVMVVPVGPTCDEYAQKVRQQFHDAKFMADIDLDPGCTLNKKIRNAQLAQYNFILVVGEKEKISGTVNIRTRDNKVHGERTISETIERLQQLKEFRSKQAEEEF

The next lines start with the molecule.

Molecule: His-GST-PABP (human, from E. coli)
- binding [1]: binds

Molecule: 4EHP-VC (human 4EHP fused to the Venus C-domain)
- binding [2]: binds

Molecule: zebrafish Myc-TRS wild type (zTRS WT) (from UniProt A0A8M1NGD6) (enzyme)
- binding [3]: binds

Molecule: PABP-FLAG (human poly(A)-binding protein)
- binding [4]: binds

B2: human TRS UNE-T region (residues 30-74), tag-free (domain or fragment, UniProt P26639 30-74)
chain: GGKKKNKEGSGDGGRAELNPWPEYIYTRLEMYNILKAEHDSILAE
- binding [7]: binds
